Our source for the Km values is paper PMC5147024, “Combined Whole-Cell High-Throughput Functional Screening for Identification of New Nicotinamidases/Pyrazinamidases in Metagenomic/Polygenomic Libraries” (Frontiers in Microbiology, 2016).

This data set has as its system T1, PolyNic (polygenomic nicotinamidase).
T1 construct: 588 bp PCR product in pET-46 Ek/LIC, expressed in E. coli Rosetta 2 (DE3); dimer
The data set can be described thus: steady-state kinetics by HPLC (Km). It is filed as biochemical.
The Km is the substrate concentration at which the rate is half of its maximum. As to `Cc1cncc(C(N)=O)c1` [5-methyl-NAM, 5-methylnicotinamide], the Km is 435 ± 15 µM.

On to `CCOC(=O)c1cccnc1` [Ethylnicotinate], for which the Michaelis constant (Km) came out at 1090 ± 105 µM.

On to `COC(=O)c1cccnc1` [Methylnicotinate], for which the Km was determined as 355 ± 30 µM.

As to `NC(=O)c1cccnc1` [NAM, Nicotinamide], the Km worked out at 49 ± 2 µM. For `NC(=O)c1cnccn1` [PZA, Pyrazinamide] the value was 103 ± 10 µM.
